Experimental data reported in publication PMC5593906.
No constants are given. Whether binding was seen depends on the method and setting.

Chains of the proteins cited; added tags and fusions are not shown. Residues count along the entry.
UniProt Q13017, residues 590-763: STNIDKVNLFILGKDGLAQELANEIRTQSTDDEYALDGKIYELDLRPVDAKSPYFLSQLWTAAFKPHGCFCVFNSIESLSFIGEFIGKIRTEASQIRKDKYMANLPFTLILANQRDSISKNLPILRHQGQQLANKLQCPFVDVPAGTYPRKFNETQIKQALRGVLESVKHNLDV

Experiments:
[1] = molecular target: Homo sapiens (human) p190RhoGAP-B pG1 domain (human) (UniProt Q13017); experiment: SEC; gel filtration of the purified, untagged pG1 domain; Superdex 75 prep grade, 20 mM Tris pH 7.5, 150 mM NaCl; both purified
[2] = molecular target: Xenopus laevis (frog) p190RhoGAP-A pG1 domain (Xenopus laevis) (UniProt Q6NU25); experiment: as above

Molecule	binding [1]	binding [2]
Homo sapiens (human) p190RhoGAP-B pG1 domain (from UniProt Q13017 590-763) (domain or fragment)	no binding	–
Xenopus laevis (frog) p190RhoGAP-A pG1 domain (domain or fragment, UniProt Q6NU25 587-762) DPNVDRINLVILGRDGLARELANEIRALCTNDDKYVIDGKMYELSLRPIEGNVRLPVNSFQTSTFQPHGCLCLYNSKESLSYVVESIEKSRESSLGRKENHLINLPLTLILVNRRGDTSSETAHSLIQHGQQVASKLQCVFLDAASTGLGYGRNINEKQISLILRGLLESKRNLNL	–	no binding
